In patent US5958445A, “Oral Formulations of S(+)-etodolac” (priority 1998, dated 1999):

Test system: taste receptors of the recipients mouth
Experiment: Taste (organoleptic acceptability)
Conditions: S(+) form: if it is not solubilized
Text: This invention relates to novel formulations of etodolac, also known as etodolac acid. More particularly, this invention relates to organoleptically acceptable oral formulations utilizing S(+)-etodolac. For the purposes of this description, organoleptically acceptable compounds, materials and formulations are those which can contact the taste receptors of the recipients mouth, particularly those in which the active ingredient can contact the taste receptors, and which are generally acceptable to the senses of the recipient, particularly the sense of taste.

Row | SMILES | taste
1 | CCc1cccc2c3c([nH]c12)[C@](CC)(CC(=O)O)OCC3 [S(+)-etodolac, S(+) 1,8-diethyl-1,3,4,9-tetrahydropyrano[3,4-b]indole-1-acetic acid] | does not contain the unpleasant, bitter taste of the racemic etodolac
2 | CCc1cccc2c3c([nH]c12)C(CC)(CC(=O)O)OCC3 (racemic) [etodolac, (±) 1,8-diethyl-1,3,4,9-tetrahydropyrano[3,4-b]indole-1-acetic acid] | unpleasant, bitter taste
